The assay deals with ZNF263 (human (endogenous in U251 and U118)) (UniProt O14978). As to the kind of experiment: affinity purification with mass spectrometry; ZNF263 immunoprecipitation from cell lysate followed by LC-MS/MS; cells not given.

Sequences of proteins named here, by UniProt entry; tags and fusion partners are left off.
UniProt O14978: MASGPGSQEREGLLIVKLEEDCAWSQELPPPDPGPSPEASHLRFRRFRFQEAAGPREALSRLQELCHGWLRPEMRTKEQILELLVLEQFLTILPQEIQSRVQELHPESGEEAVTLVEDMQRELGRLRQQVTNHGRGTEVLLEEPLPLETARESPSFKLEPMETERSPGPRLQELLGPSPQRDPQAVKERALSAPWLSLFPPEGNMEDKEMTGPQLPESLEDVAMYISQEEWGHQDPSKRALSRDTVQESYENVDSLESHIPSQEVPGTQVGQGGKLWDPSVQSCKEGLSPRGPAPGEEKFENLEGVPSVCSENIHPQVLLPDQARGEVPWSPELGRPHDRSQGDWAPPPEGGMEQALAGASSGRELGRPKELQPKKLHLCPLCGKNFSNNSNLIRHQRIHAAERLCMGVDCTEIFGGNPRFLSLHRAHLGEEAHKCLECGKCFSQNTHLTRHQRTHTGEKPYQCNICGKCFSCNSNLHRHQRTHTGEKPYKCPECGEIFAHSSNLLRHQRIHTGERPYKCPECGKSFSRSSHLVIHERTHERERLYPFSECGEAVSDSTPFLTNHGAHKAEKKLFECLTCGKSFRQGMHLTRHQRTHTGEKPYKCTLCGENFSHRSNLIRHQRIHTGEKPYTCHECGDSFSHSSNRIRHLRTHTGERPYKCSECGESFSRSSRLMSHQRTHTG
UniProt Q92769: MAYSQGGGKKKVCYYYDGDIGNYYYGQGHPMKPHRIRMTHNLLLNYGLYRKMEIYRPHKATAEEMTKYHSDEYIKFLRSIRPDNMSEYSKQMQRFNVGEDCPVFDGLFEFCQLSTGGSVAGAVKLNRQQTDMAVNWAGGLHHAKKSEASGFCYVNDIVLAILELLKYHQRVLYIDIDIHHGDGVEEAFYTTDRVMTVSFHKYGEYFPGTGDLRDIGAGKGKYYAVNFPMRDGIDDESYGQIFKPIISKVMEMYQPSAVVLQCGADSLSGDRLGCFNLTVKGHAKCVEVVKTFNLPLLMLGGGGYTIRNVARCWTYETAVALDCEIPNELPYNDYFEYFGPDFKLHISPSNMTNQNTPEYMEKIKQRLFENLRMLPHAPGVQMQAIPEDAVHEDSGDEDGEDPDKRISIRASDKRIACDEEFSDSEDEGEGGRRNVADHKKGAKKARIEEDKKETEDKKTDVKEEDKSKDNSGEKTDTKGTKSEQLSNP
UniProt Q13263: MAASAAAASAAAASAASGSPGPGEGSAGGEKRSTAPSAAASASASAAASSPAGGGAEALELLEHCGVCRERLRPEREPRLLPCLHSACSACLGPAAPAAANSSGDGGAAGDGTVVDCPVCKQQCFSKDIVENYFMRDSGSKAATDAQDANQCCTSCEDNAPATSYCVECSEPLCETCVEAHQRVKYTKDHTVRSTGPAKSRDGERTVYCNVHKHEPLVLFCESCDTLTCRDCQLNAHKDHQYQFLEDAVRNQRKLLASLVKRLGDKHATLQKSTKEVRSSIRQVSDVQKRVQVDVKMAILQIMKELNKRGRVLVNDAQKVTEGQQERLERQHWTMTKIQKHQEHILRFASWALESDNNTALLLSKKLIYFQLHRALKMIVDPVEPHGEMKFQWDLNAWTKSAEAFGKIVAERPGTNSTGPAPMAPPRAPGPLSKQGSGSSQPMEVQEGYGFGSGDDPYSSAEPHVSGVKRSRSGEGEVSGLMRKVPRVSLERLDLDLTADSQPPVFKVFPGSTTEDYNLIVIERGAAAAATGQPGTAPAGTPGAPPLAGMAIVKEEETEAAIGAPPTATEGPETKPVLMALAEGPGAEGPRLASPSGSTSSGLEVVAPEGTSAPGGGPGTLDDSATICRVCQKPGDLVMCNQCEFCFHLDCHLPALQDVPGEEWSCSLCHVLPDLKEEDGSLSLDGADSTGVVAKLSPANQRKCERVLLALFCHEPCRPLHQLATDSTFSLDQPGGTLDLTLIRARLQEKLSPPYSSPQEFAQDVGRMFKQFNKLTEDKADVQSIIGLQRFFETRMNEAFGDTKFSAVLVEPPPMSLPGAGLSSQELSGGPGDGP

The source of these data is PMC7142014.

No constants are given. Whether binding was seen depends on the method and setting. In cells and extracts the contact can be indirect. These calls come from enrichment with a bait or labelling near it, and not all partners need be listed.

As for “HDAC2 (from UniProt Q92769 1-488) (enzyme)”, the binding result is on record as “binds”. With “TRIM28 (KAP1) (from UniProt Q13263 1-835)” the entry was “binds”.

B1: UHRF1 (protein, UniProt Q96T88 1-793)
chain: MWIQVRTMDGRQTHTVDSLSRLTKVEELRRKIQELFHVEPGLQRLFYRGKQMEDGHTLFDYEVRLNDTIQLLVRQSLVLPHSTKERDSELSDTDSGCCLGQSESDKSSTHGEAAAETDSRPADEDMWDETELGLYKVNEYVDARDTNMGAWFEAQVVRVTRKAPSRDEPCSSTSRPALEEDVIYHVKYDDYPENGVVQMNSRDVRARARTIIKWQDLEVGQVVMLNYNPDNPKERGFWYDAEISRKRETRTARELYANVVLGDDSLNDCRIIFVDEVFKIERPGEGSPMVDNPMRRKSGPSCKHCKDDVNRLCRVCACHLCGGRQDPDKQLMCDECDMAFHIYCLDPPLSSVPSEDEWYCPECRNDASEVVLAGERLRESKKKAKMASATSSSQRDWGKGMACVGRTKECTIVPSNHYGPIPGIPVGTMWRFRVQVSESGVHRPHVAGIHGRSNDGAYSLVLAGGYEDDVDHGNFFTYTGSGGRDLSGNKRTAEQSCDQKLTNTNRALALNCFAPINDQEGAEAKDWRSGKPVRVVRNVKGGKNSKYAPAEGNRYDGIYKVVKYWPEKGKSGFLVWRYLLRRDDDEPGPWTKEGKDRIKKLGLTMQYPEGYLEALANREREKENSKREEEEQQEGGFASPRTGKGKWKRKSAGGGPSRAGSPRRTSKKTKVEPYSLTAQQSSLIREDKSNAKLWNEVLASLKDRPASGSPFQLFLSKVEETFQCICCQELVFRPITTVCQHNVCKDCLDRSFRAQVFSCPACRYDLGRSYAMQVNQPLQTVLNQLFPGYGNGR
Regarding B1, the binding entry is reported as “binds”.
